These are yes or no findings as the source states them, for the method shown. In cells and extracts the contact can be indirect. Where a sequence is shown, tags or fusion partners need not be part of it.
Molecular target: T1, Myc-tagged zebrafish atrogin-1 (zebrafish) (UniProt Q7ZTY2)
T1 sequence: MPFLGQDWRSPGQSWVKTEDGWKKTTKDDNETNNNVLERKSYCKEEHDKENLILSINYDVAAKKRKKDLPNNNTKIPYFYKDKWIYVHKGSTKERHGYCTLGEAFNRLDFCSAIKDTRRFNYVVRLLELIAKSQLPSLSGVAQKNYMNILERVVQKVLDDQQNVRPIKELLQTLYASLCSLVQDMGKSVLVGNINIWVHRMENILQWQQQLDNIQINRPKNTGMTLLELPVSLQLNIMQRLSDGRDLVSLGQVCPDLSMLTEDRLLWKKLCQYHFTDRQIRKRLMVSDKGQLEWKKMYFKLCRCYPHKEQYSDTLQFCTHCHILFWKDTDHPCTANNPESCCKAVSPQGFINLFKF
Assay: co-IP; HEK293T cells cotransfected with Myc-atrogin-1 and/or BiP-HA (GFP as control); lysates in IP Lysis buffer with protease inhibitors; anti-Myc antibody-conjugated magnetic beads (c-Myc-Tag Magnetic IP/Co-IP Kit), overnight at 4°C; Western blot with anti-Myc and anti-HA

binding: no binding
Substance: HA-tagged zebrafish BiP

— PMC11141880
